The chains behind the UniProt entries cited, without tags or fusion partners. Where a name states a change or a piece, a line headed by the entry shows the natural chain unless it says otherwise.
UniProt P18054: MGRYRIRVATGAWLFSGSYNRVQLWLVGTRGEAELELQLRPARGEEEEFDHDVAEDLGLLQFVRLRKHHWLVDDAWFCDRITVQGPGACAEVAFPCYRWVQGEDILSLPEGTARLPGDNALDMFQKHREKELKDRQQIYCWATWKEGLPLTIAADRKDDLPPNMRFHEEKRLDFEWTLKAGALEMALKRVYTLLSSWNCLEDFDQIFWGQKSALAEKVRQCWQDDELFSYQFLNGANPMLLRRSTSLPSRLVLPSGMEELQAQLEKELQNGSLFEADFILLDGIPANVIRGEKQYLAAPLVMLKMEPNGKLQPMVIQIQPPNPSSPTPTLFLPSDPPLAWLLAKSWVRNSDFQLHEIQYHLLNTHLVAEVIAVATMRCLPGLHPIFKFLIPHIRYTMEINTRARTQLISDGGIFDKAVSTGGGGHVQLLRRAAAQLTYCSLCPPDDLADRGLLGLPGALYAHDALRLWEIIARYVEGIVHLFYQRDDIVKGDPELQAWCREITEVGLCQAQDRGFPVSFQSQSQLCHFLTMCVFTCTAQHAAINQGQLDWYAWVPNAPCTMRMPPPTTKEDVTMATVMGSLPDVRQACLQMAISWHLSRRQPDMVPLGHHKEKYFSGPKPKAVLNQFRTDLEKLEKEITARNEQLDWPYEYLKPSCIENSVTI

“And” between values parts separate entries of the source, which are not always exact repeats. Equal values may be shown once. Screen size: about 580,000 compounds; about 6,100 (1.1%) were called active. Inconclusive results, whose numbers are uncertain, are shown with a selection of clear calls. Calls come from the whole dose curve; as a rule, active = well fitted inhibition curve with a large enough effect; inconclusive = small, poorly fitted or top-dose-only effect, or another doubt; inactive = no such curve, though single readings can be large or run the other way. Where the call is inconclusive, the potency comes from a doubtful curve fit.
What follows are molecules tested against Polyunsaturated fatty acid lipoxygenase ALOX12 (Homo sapiens) (UniProt P18054) (assay: Primary qHTS assay for inhibitors of human arachidonate 12S-lipoxygenase (ALOX12): Round 2). Details: purified 12hLO, xylenol orange hydroperoxide absorbance; series mostly up to 108 µM.
Summary of the method: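 Purified human 12hLO (150 nM final) in 25 mM Hepes, 0.01% Triton X-100, pH 7.0 was preincubated 15 min at room temperature with compound. Then 40 uM arachidonic acid was added, 30 min. Hydroperoxide was read by Fe-XO absorbance ratio 573/405 nm.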
O=C(Cn1nc(-c2ccc(F)cc2)c2ccccc2c1=O)N1CCOCC1 was tested, and the Potency was “inactive”.
With Cc1cc(Cl)ccc1NC(=O)N1CCCC(Cn2cnc3cccnc32)C1 (stereo unspecified) the Potency was “inactive”.
In the case of CN1Cc2ncnc(NCCc3ccccc3)c2CN(c2ccc(Cl)cc2)C1=O, the Potency is reported as inconclusive: 39.8 µM [inhibitor, full curve, poor fit].
In the case of CCc1cccc(OCCOC(=O)c2cc(C)nc3ccccc23)c1, the Potency is reported as inconclusive: 50.1 µM [inhibitor, partial curve, poor fit].
For O=C(CSc1nc2ccsc2c(=O)n1-c1ccccc1)NC1CCCC1, the Potency was inconclusive: 3.98 µM [inhibitor, full curve, poor fit].
With CCc1nnc(NC(=O)CSc2nnc(-c3ccncc3)n2C)s1 the Potency was inconclusive: 89.1 µM [inhibitor, single point].
With Cc1c(NC=C(C#N)C#N)c(=O)n(-c2ccccc2)n1C the Potency was “inactive”.
For CCCCn1c(N)c(N(CCOC)C(=O)CSCc2ccc(Cl)c(Cl)c2)c(=O)[nH]c1=O, the Potency was inconclusive: 89.1 µM [inhibitor, partial curve, poor fit].
In the case of O=C(CCCN=C1NS(=O)(=O)c2ccccc21)OCc1ccccc1, the Potency is reported as inconclusive: 112 µM [inhibitor, single point].
With C/C(N)=C(/C#N)C(=O)CSc1nc2cc(Cl)ccc2s1 the Potency was inconclusive: 35.5 µM [inhibitor, partial curve].
With O=c1c2ccccc2cnn1CCNC1CCC2(CCNCC2)CC1 the Potency was inconclusive: 8.91 µM [inhibitor, full curve, poor fit].
O=C1CN(C(=O)C2CNCC23CCOCC3)CCN1 (stereo unspecified) was tested, and the Potency was “inactive”.
CCOC(=O)c1cccc(NC(=O)CS(=O)(=O)Cc2nc(-c3ccc(C)cc3)oc2C)c1 was tested, and the Potency was “inactive”.
For O=C(Nc1nc(=O)n(C(=O)c2cccc(C(F)(F)F)c2)s1)c1ccccc1, the Potency was inconclusive: 39.8 µM [inhibitor, partial curve, poor fit].
In the case of COc1ccc(NC(=O)CSc2nnc(-c3ccccc3C)n2N)cc1, the Potency is reported as “inactive”.
With O=C(CCSC1=NCCCN1)c1ccc(F)cc1 the Potency was active: 44.7 µM.
With CN(C)S(=O)(=O)N1CC=C(c2c[nH]c3ccccc23)CC1 the Potency was active: 17.8 µM.
Cn1c(=O)c2[nH]c(-c3cccc(O)c3)nc2n(C)c1=O was tested, and the Potency was inconclusive: 15.8 µM [inhibitor, partial curve, poor fit].
With CCn1c(SCC(=O)Nc2nncs2)nnc1-c1ccc(C)cc1 the Potency was “inactive”.
CNC(=O)N1CCC(C2CCN(Cc3ccc(F)c(OC)c3)C2)CC1 (stereo unspecified) was tested, and the Potency was inconclusive: 39.8 µM [inhibitor, partial curve, poor fit].
CSc1ccc(/C=C2\N=C(c3ccc(C)cc3)OC2=O)cc1 was tested, and the Potency was inconclusive: 44.7 µM [inhibitor, single point].
For N#Cc1ccc(N2C[C@@H]3OCC(=O)N(Cc4ccccn4)[C@@H]3C2)nc1, the Potency was inconclusive: 63.1 µM [inhibitor, full curve].
In the case of Cc1ccc2c(CN3CCN(c4ccc(Cl)c(Cl)c4)CC3)cc(=O)oc2c1, the Potency is reported as inconclusive: 112 µM [inhibitor, partial curve, poor fit].
O=C(c1cc(=O)[nH]c2ccccc12)N1CCN(c2cccc(C(F)(F)F)c2)CC1 was tested, and the Potency was inconclusive: 10 µM [inhibitor, full curve, poor fit].
COc1ccc(C(=O)N/N=C2\CCS(=O)(=O)c3ccc(F)cc32)cc1OC was tested, and the Potency was “inactive”.
For Cc1cc(C)n2cc(CSCc3ccco3)nc2n1, the Potency was “inactive”.
With CC(C)C(=O)N(Cc1ccc2cc[nH]c2c1)C1CC1 the Potency was “inactive”.
For CC(=O)Nc1cccc(-c2ccnc3c2CC(C)(C(=O)NCCc2ccccc2)O3)c1 (stereo unspecified), the Potency was “inactive”.
With COc1ccc(F)cc1-c1cc(NC=O)c2ncc(-c3cc(OC)c(OC)c(OC)c3)n2c1 the Potency was “inactive”.
CCN(CC(=O)Nc1ccc2c(c1)CCC2)Cc1nc2ccccc2c(=O)[nH]1 was tested, and the Potency was “inactive”.
In the case of Cc1ccnc2nc(C(=O)OCC(=O)Nc3ccc(OC(F)F)cc3)nn12, the Potency is reported as inconclusive: 50.1 µM [inhibitor, partial curve, poor fit].
C#CCOCCOCCOCCNc1nc(N2CCN(C(=O)[C@H]([C@@H](C)CC)n3cc([C@@H](N)CO)nn3)CC2)nc(N2CCN(C(=O)[C@H](CCCCN)n3cc([C@@H](N)CC(C)C)nn3)CC2)n1 was tested, and the Potency was inconclusive: 35.5 µM [inhibitor, partial curve, poor fit].
With CC(Sc1nnc(CCC(N)=O)n1C1CC1)C(=O)c1c[nH]c2ccccc12 (stereo unspecified) the Potency was inconclusive: 141 µM [inhibitor, partial curve, poor fit].
COC(=O)CCN(Cc1cc(OC)ccc1OC)S(=O)(=O)c1ccccc1Br was tested, and the Potency was inconclusive: 89.1 µM [inhibitor, single point].
With Cc1ccc(OCCNC(=O)c2cc3ccccc3oc2=O)c(C)c1 the Potency was “inactive”.
For CCCCN(C(=O)c1cc(S(=O)(=O)N2CCOCC2)ccc1Cl)c1c(N)n(CC(C)C)c(=O)[nH]c1=O, the Potency was inconclusive: 50.1 µM [inhibitor, partial curve, poor fit].
In the case of COc1ccc(Oc2ncc3nc(-c4ccc(Cl)cc4)c(=O)n(CCC#N)c3n2)cc1, the Potency is reported as inconclusive: 1.58 µM [inhibitor, partial curve, poor fit].
With COC(=O)c1ccc(NC(=O)CN2CCN(CC#N)CC2)cc1 the Potency was inconclusive: 1.26 µM [inhibitor, full curve, poor fit].
For COc1ccc2cc(C(=O)NC(CN(C)C)c3ccccc3)[nH]c2c1 (stereo unspecified), the Potency was inconclusive: 56.2 µM [inhibitor, partial curve, poor fit].
For C=CCn1c(C)cc(C(=O)COC(=O)c2ccc(N)c([N+](=O)[O-])c2)c1C, the Potency was “inactive”.
In the case of O=C(Oc1ccccc1)N(c1ccccc1)c1ccccc1, the Potency is reported as inconclusive: 112 µM [inhibitor, single point].
For CC(NCC1(N2CCOCC2)CCCCC1)C(=O)Nc1ccc(Cl)cc1Cl (stereo unspecified), the Potency was “inactive”.
CCCNC(=O)c1ccc(-c2nc3ccccc3s2)s1 was tested, and the Potency was “inactive”.
For Brc1ccccc1OCCCCn1cnc2ccccc21, the Potency was inconclusive: 50.1 µM [inhibitor, partial curve, poor fit].
With Cc1cc(C)nc(/N=C2\NC(=O)CC(C(=O)O)N2c2ccc(C)c(C)c2)n1 (stereo unspecified) the Potency was “inactive”.
In the case of Cc1ccc(/C=C/C(=O)c2ccccc(=O)c2O)c(C)c1, the Potency is reported as active: 31.6 µM.
With C#CCN(C[C@H]1[C@H](OC(=O)NCc2ccccc2F)[C@H](OC(=O)NCc2ccccc2F)C[C@H]2C(=O)N(c3ccccc3)C(=O)[C@@H]12)S(=O)(=O)c1ccc(C)cc1 the Potency was inconclusive: 112 µM [inhibitor, partial curve, poor fit].
For COC(=O)Cc1c(C)c2ccc(OCc3nn[nH]n3)cc2oc1=O, the Potency was inconclusive: 11.2 µM [inhibitor, full curve] and inconclusive: 28.2 µM [inhibitor, single point].
In the case of Cc1ccc(C(O)c2nc3ccccc3n2C(C)C)cc1 (stereo unspecified), the Potency is reported as inconclusive: 158 µM [inhibitor, partial curve, poor fit].
For CN=C(N)NC(=O)Nc1c(C)cccc1C, the Potency was “inactive”.
In the case of O=c1c(NCc2cccs2)nccn1-c1ccccc1, the Potency is reported as inconclusive: 56.2 µM [inhibitor, partial curve, poor fit].
In the case of COc1ccc2[nH]c(C)c(CCNC(=S)Nc3cc(C)cc(C)c3)c2c1, the Potency is reported as inconclusive: 44.7 µM [inhibitor, partial curve, poor fit].
For CN(C)S(=O)(=O)N1CCC(Oc2ccc(C(=O)N3CCCCCCC3)cc2)CC1, the Potency was “inactive”.
With Cc1ccccc1OCC(=O)NNC(=O)c1ccoc1C the Potency was inconclusive: 89.1 µM [inhibitor, single point].
In the case of Cc1cc2c(cc1C)N1C(=O)c3cc4ccccc4cc3NC(=O)C1C(=O)N2 (stereo unspecified), the Potency is reported as inconclusive: 89.1 µM [inhibitor, single point].
In the case of CC1(C)CC(=O)C2=C(C1)N(Cc1ccccc1)C(=O)C2(NC(=O)C(C)(C)C)C(F)(F)F (stereo unspecified), the Potency is reported as “inactive”.
With Cc1c(C(=O)O)c(=S)sn1CCOc1ccccc1 the Potency was inconclusive: 39.8 µM [inhibitor, partial curve, poor fit].
For COc1ccc(-c2cccc(NS(=O)(=O)c3cc(C(F)(F)F)ccc3Cl)c2)nn1, the Potency was inconclusive: 141 µM [inhibitor, partial curve, poor fit].
With O=C(NCCNCc1c[nH]c2ccccc12)c1ccccc1F the Potency was inconclusive: 0.562 µM [inhibitor, full curve, poor fit].
CC(=O)Nc1cccc(C(=O)N2CCC3(CC2)NC(=O)N(c2cccc(Cl)c2)N3)c1 was tested, and the Potency was active: 1.41 µM.
In the case of O=C(Cn1cnc2ccccc2c1=O)Nc1ccc2c(c1)CCC2, the Potency is reported as inconclusive: 44.7 µM [inhibitor, partial curve, poor fit].
Nc1ccc(N2CCN(c3ccc(Cl)c(Cl)c3)CC2)cc1 was tested, and the Potency was inconclusive: 79.4 µM [inhibitor, partial curve, poor fit].
With O=c1[nH]c(-n2cccc2)c(-c2c(-c3ccc4ccccc4c3)[nH]c3[nH]c(=O)[nH]c(=O)c23)c(=O)[nH]1 the Potency was inconclusive: 35.5 µM [inhibitor, full curve, poor fit].
For CCCOc1ccc(Cl)cc1/C=C1/C(=O)ON=C1C, the Potency was inconclusive: 15.8 µM [inhibitor, full curve].
With CCOC(=O)C1=C(CN2CCN(C(=O)OC(C)(C)C)CC2)NC(=O)NC1c1ccccc1OCC (stereo unspecified) the Potency was inconclusive: 35.5 µM [inhibitor, partial curve, poor fit].
With Cc1cccc(C)c1OCc1cc(C(=O)NC2CCC2)no1 the Potency was “inactive”.

— PubChem BioAssay AID1671190 (National Center for Advancing Translational Sciences (NCATS), 2021)
Potency is the fitted concentration of half-maximal effect.
